Measurements as given in PubChem BioAssay (NCATS).
The inconclusive results got no clear call from the source; some entries with a clear call stand among them for comparison. For part of these data: Where the call is inconclusive, the potency comes from a doubtful curve fit. Activity calls are given as the source filed them. Unless noted, calls follow the shape of the dose curve; as a rule, active = well fitted curve in the direction sought with a large enough effect; inconclusive = small, poorly fitted or top-dose-only effect, or another doubt; inactive = no such curve, though single readings can be large; an effect the other way counts as inactive or inconclusive.

Tests used:
[1] = Quantitative High-Throughput drug screen in 47 multiple myeloma cell lines against the NCATS MIPE library collection: VP6_DJ cell viability assay (AID 1919867); also: nearly all actives have a fitted effect of over 40% in size
Summary of the method: (§1)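 500 cells/well per myeloma line exposed to pinned MIPE 4.0 compounds for 48 h at 37 °C, 5% CO2. Viability read as ATP by CellTiter-Glo luminescence, normalised to DMSO-only (100%) and media-only (0%) wells.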

[2] = Quantitative High-Throughput drug screen in 47 multiple myeloma cell lines against the NCATS MIPE library collection: UTMC2_PLB cell viability assay (AID 1919868); details: CellTiter-Glo ATP luminescence, 48 h; series mostly up to 45.8 µM; also: nearly all actives have a fitted effect of over 55% in size
Summary of the method: as §1

[3] = Quantitative High-Throughput drug screen in 47 multiple myeloma cell lines against the NCATS MIPE library collection: PE2_PLB cell viability assay (AID 1919869); details: PE2_PLB myeloma cells viability, ATP luminescence, 48 h; viability (% of control): at 45.8 µM (top of the series); also: nearly all actives have a fitted effect of over 35% in size
Summary of the method: as §1

[4] = Quantitative High-Throughput drug screen in 47 multiple myeloma cell lines against the NCATS MIPE library collection: OPM2_DSMZ cell viability assay (AID 1919872); also: nearly all actives have a fitted effect of over 30% in size
Summary of the method: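 CellTiter-Glo ATP luminescence gave viability after 48 h compound treatment at 37C of 500 multiple myeloma cells per well. Normalisation used DMSO-only wells as 100% and media-only wells as 0% viability; primary qHTS of approved and investigational drugs.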

[5] = Quantitative High-Throughput drug screen in 47 multiple myeloma cell lines against the NCATS MIPE library collection: KMS28BM_JCRB cell viability assay (AID 1919874); details: CellTiter-Glo ATP, 48 h; series mostly up to 45.8 µM; also: nearly all actives have a fitted effect of over 35% in size
Summary of the method: as §1

[6] = Quantitative High-Throughput drug screen in 47 multiple myeloma cell lines against the NCATS MIPE library collection: PCM6_Riken cell viability assay (AID 1919870); also: nearly all actives have a fitted effect of over 30% in size
Summary of the method: as §1

[7] = Quantitative High-Throughput drug screen in 47 multiple myeloma cell lines against the NCATS MIPE library collection: RPMI8226_ATCC cell viability assay (AID 1919871); details: RPMI8226 myeloma viability, CellTiter-Glo ATP luminescence, 48 h; viability (% of control): at 45.8 µM (top of the series); also: nearly all actives have a fitted effect of over 30% in size
Summary of the method: as §1

[8] = qHTS for identification of novel therapeutic agents for treatment of microphthalmiaassociated transcription factor (MiT) renal cell carcinoma (RCC) (AID 1963991; calls by dose curve); details: TFE3-RCC UOK109 viability, CellTiter-Glo, 48 h; active = Z-AUC below -0.8 in all three lines
Summary of the method: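 Three TFE3-fusion RCC cell lines (UOK109, UOK124, UOK145), 500 cells/well, were exposed to the 1912-compound MIPE 4.0 library for 48 hours at 37 C. Viability was read by CellTiter-Glo luminescence, normalised to DMSO (100%) and empty wells (0%), with 11-concentration curve fits.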

[9] = Quantitative High-Throughput drug screen in 47 multiple myeloma cell lines against the NCATS MIPE library collection: KMS11_JCRBsus cell viability assay (AID 1919873); also: nearly all actives have a fitted effect of over 50% in size
Summary of the method: as §1

[10] = qHTS profiling for inhibitors of Plasmodium falciparum proliferation (AID 504749); also: nearly all actives have a fitted effect of over 60% in size; details: P. falciparum in erythrocytes, SYBR Green DNA, 72 h; Potency: parasite line B unless noted; series mostly up to 28.7 µM
Summary of the method: (§2)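 P. falciparum-infected erythrocytes (0.3% parasitemia, 2.5% hematocrit) incubated with compound 72 h at 37 C, 5% CO2. Parasite DNA detected by SYBR Green after lysis, overnight at room temperature; normalised to 0.29 uM artemisinin and DMSO.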

7G8 = assay: as above; details: P. falciparum in erythrocytes, SYBR Green DNA, 72 h; series mostly up to 28.7 µM
Summary of the method: as §2
Potency is read from the fitted curve at half-maximal effect.

CC(C)(Sc1ccc(CCN(CCCCC2CCCCC2)C(=O)NC2CCCCC2)cc1)C(=O)O
Potency [1]: inactive
Potency [2]: inconclusive: 4.18 µM [cytotoxic, partial curve, poor fit]
Potency [3]: inconclusive: 5.9 µM [cytotoxic, partial curve, poor fit]
Potency [4]: inconclusive: 0.0017 µM [cytotoxic, full curve, poor fit]
Potency [5]: inactive

CON=C(C(=O)N[C@@H]1C(=O)N2C(C(=O)O)=C(Cn3ccc(=N)n3CCO)CS[C@H]12)c1csc(N)n1
Potency [1]: inconclusive: 18.7 µM [cytotoxic, partial curve, poor fit]
Potency [2]: inconclusive: 6.62 µM [rising, partial curve, poor fit]
Potency [6]: inactive
Potency [7]: inactive

Nc1nc2c(ncn2COC(CO)CO)c(=O)[nH]1
Potency [1]: active: 18.7 µM
Potency [2]: inconclusive: 18.7 µM [cytotoxic, partial curve, poor fit]
Potency [3]: active: 23.5 µM
Potency [4]: active: 23.5 µM
Potency [8]: inconclusive: 37.2 µM [falling, single point]

C=CCc1cccc(C=NNC(=O)CN2CCN(Cc3ccccc3)CC2)c1O
Potency [1]: active: 7.43 µM
Potency [2]: active: 20.9 µM
Potency [3]: active: 20.9 µM
Potency [7]: inconclusive: 11.8 µM [cytotoxic, full curve]
Potency [8]: inconclusive: 4.69 µM [falling, partial curve, poor fit]

O=C1c2cccc(O)c2C(=O)c2c(O)cc(CO)cc21
Potency [1]: inconclusive: 0.001 µM
Potency [2]: inconclusive: 26.4 µM [rising, single point]
Potency [3]: inactive
Potency [9]: inactive

Cc1cnc(-c2cc(N3CCN(C(=O)CCS(C)(=O)=O)CC3)ncc2Cl)c(C)c1
Potency [1]: inconclusive: 16.6 µM [cytotoxic, partial curve, poor fit]
Potency [2]: inconclusive: 1.66 µM [cytotoxic, full curve, poor fit]
Potency [3]: inconclusive: 26.4 µM [cytotoxic, single point]
Potency [7]: inactive
Potency [8]: inconclusive: 26.4 µM [falling, single point]

CN(C(=O)c1ccc(F)cc1C(F)(F)F)C1CCN(c2nnc(-c3ccnn3C)c3ccccc23)CC1
Potency [1]: active: 16.6 µM
Potency [2]: inconclusive: 26.4 µM [cytotoxic, single point]
Potency [6]: inconclusive: 1.18 µM [cytotoxic, full curve, poor fit]
Potency [7]: inconclusive: 0.0017 µM [rising, full curve, poor fit]
Potency [4]: inconclusive: 0.0013 µM [rising, full curve]
Potency [9]: inconclusive: 23.5 µM [cytotoxic, partial curve]
Potency [5]: inconclusive: 26.4 µM [cytotoxic, single point]
Potency [8]: inconclusive: 7.43 µM [falling, partial curve]

CCN(C)C(=O)Oc1cccc([C@H](C)N(C)C)c1
Potency [1]: inconclusive: 0.0023 µM [rising, full curve, poor fit]
Potency [2]: inconclusive: 0.0053 µM [rising, full curve, poor fit]
Potency [6]: inconclusive: 1.87 µM [cytotoxic, full curve, poor fit]
Potency [7]: inconclusive: 2.64 µM [cytotoxic, full curve, poor fit]

COc1cc2c(c(OC)c1OC)-c1ccc(OC)c(=O)cc1[C@@H](NC(C)=O)CC2
Potency [1]: inactive
Potency [2]: inactive
Potency [6]: inactive
Potency [7]: inconclusive: 0.0083 µM [cytotoxic, full curve]
Potency [4]: inactive
Potency [5]: inconclusive: 0.003 µM [cytotoxic, partial curve, poor fit]
Potency [8]: inconclusive: 0.00418 µM [falling, full curve]

O=C(O)C(=O)Nc1cccc(C2=NN=N[N]2)c1
Potency [1]: inactive
Potency [2]: inconclusive: 0.0105 µM [rising, full curve, poor fit]
Potency [6]: inactive
Potency [4]: inactive
Potency [9]: inconclusive: 0.235 µM [rising, full curve, poor fit]
Potency [5]: inactive

Nc1ccc(S(=O)(=O)Nc2ncccn2)cc1
Potency [1]: inactive
Potency [2]: inactive
Potency [6]: inactive
Potency [7]: inconclusive: 13.2 µM [rising, partial curve, poor fit]
Potency [9]: inactive
Potency [5]: inactive
Potency [10]: inconclusive: 10 µM [inhibitor, single point]
Potency (7G8): inactive

Cc1cccc(N(C)C(=S)Oc2ccc3ccccc3c2)c1
Potency [1]: inconclusive: 13.2 µM [cytotoxic, partial curve, poor fit]
Potency [2]: inactive
Potency [6]: inconclusive: 7.43 µM [cytotoxic, single point]
Potency [7]: inconclusive: 20.9 µM [cytotoxic, single point]
Potency [9]: inconclusive: 13.2 µM [cytotoxic, partial curve]
Potency [8]: inconclusive: 14.8 µM [falling, partial curve]

CN1CCN(c2c(F)cc3c(=O)c(C(=O)O)cn(CCF)c3c2F)CC1
Potency [1]: inconclusive: 37.2 µM [rising, single point]
Potency [2]: inconclusive: 1.48 µM [rising, full curve, poor fit]
Potency [6]: inactive
Potency [7]: inconclusive: 2.09 µM [rising, partial curve]
Potency [9]: inconclusive: 0.0059 µM [rising, full curve, poor fit]
Potency [5]: inactive
Potency (7G8): inactive

Cc1cc(-c2nnc3n2CCCCC3)c(C)n1-c1ccccc1
Potency [1]: inactive
Potency [2]: inactive
Potency [6]: inconclusive: 20.9 µM [cytotoxic, partial curve, poor fit]
Potency [7]: inconclusive: 26.4 µM [cytotoxic, single point]
Potency [4]: inactive
Potency [5]: inconclusive: 37.2 µM [cytotoxic, single point]

CC[C@H](C)C(=O)O[C@H]1C[C@H](O)C=C2C=C[C@H](C)[C@H](CC[C@@H](O)C[C@@H](O)CC(=O)O)[C@H]21
Potency [1]: inconclusive: 29.6 µM [cytotoxic, partial curve, poor fit]
Potency [2]: inactive
Potency [6]: inactive
Potency [7]: inactive
Potency [9]: inconclusive: 29.6 µM [cytotoxic, single point]
Potency [5]: inconclusive: 29.6 µM [cytotoxic, single point]

CC(=O)Nc1cccc(-n2c(=O)n(C3CC3)c(=O)c3c(Nc4ccc(I)cc4F)n(C)c(=O)c(C)c32)c1
Potency [1]: inactive
Potency [2]: inconclusive: 0.105 µM [cytotoxic, full curve, poor fit]
Potency [6]: inconclusive: 0.0026 µM [rising, full curve, poor fit]
Potency [7]: active: 1.66 µM
Potency [4]: inconclusive: 2.96 µM [cytotoxic, full curve]
Potency [9]: inconclusive: 23.5 µM [cytotoxic, partial curve, poor fit]
Potency [8]: inconclusive: 0.0372 µM [falling, full curve]

CC(=O)N[C@@H]1[C@H](O[C@@H]2c3ccc(c(Cl)c3)Oc3cc4cc(c3O[C@H]3O[C@H](CO)[C@@H](O)[C@H](O)[C@H]3NC(=O)CCCCCCCC(C)C)Oc3ccc(cc3Cl)C[C@H]3NC(=O)[C@H](N)c5ccc(O)c(c5)Oc5cc(O)cc(c5)[C@H](NC3=O)C(=O)N[C@H]4C(=O)N[C@H]3C(=O)N[C@@H]2C(=O)N[C@@H](C(=O)O)c2cc(O)cc(O[C@H]4O[C@H](CO)[C@@H](O)[C@H](O)[C@H]4O)c2-c2cc3ccc2O)O[C@H](CO)[C@@H](O)[C@@H]1O
Potency [1]: inactive
Potency [2]: inactive
Potency [6]: inactive
Potency [4]: inactive

CC(C)(C)c1cc(NC(=O)Nc2ccc(-c3cn4c(n3)sc3cc(OCCN5CCOCC5)ccc34)cc2)no1
Potency [1]: inconclusive: 18.7 µM [cytotoxic, partial curve, poor fit]
Potency [2]: inconclusive: 6.62 µM [cytotoxic, partial curve, poor fit]
Potency [6]: inactive
Potency [7]: inconclusive: 10.5 µM [cytotoxic, partial curve]
Potency [4]: active: 5.26 µM
Potency [9]: inconclusive: 1.18 µM [cytotoxic, full curve]
Potency [8]: inconclusive: 20.9 µM [single point]

CC(=O)[C@H]1CC[C@H]2[C@@H]3CC=C4C[C@@H](O)CC[C@]4(C)[C@H]3CC[C@]12C
Potency [1]: inconclusive: 0.001 µM
Potency [2]: inconclusive: 0.0332 µM [rising, full curve, poor fit]
Potency [6]: inactive
Potency [7]: inconclusive: 10.5 µM [cytotoxic, partial curve, poor fit]
Potency [9]: inactive
Potency [5]: inactive

C[C@H](CCC(=O)O)[C@H]1CC[C@H]2[C@@H]3[C@H](O)C[C@@H]4C[C@H](O)CC[C@]4(C)[C@@H]3CC[C@]12C
Potency [1]: inconclusive: 0.0743 µM [cytotoxic, full curve, poor fit]
Potency [2]: inconclusive: 33.2 µM [cytotoxic, single point]
Potency [6]: inactive
Potency [7]: inactive
Potency [9]: inactive
Potency [5]: inconclusive: 0.0209 µM [rising, full curve, poor fit]

CC(=O)NCCC(=O)N[C@@H](CCC(N)=O)C(=O)N[C@@H](CO)C(=O)N[C@@H](CCC(N)=O)C(=O)N[C@@H](CCC(N)=O)C(=O)N[C@H](C(=O)N[C@@H](Cc1ccccc1)C(=O)N[C@]1(C)CCCCCCC=CCCC[C@@](C)(C(=O)N[C@@H](CCC(N)=O)C(=O)N[C@@H](CC(N)=O)C(N)=O)NC(=O)[C@H](CC(C)C)NC(=O)[C@H](CC(C)C)NC(=O)[C@@H](CCCNC(=N)N)NC(=O)[C@H](Cc2c[nH]c3ccccc23)NC(=O)[C@H](CC(C)C)NC(=O)[C@H](CC(N)=O)NC1=O)[C@H](C)O
Potency [1]: inconclusive: 10.5 µM [cytotoxic, partial curve, poor fit]
Potency [2]: inconclusive: 37.2 µM [cytotoxic, single point]
Potency [6]: inconclusive: 33.2 µM [cytotoxic, single point]
Potency [4]: inconclusive: 23.5 µM [cytotoxic, single point]
Potency [9]: inconclusive: 2.64 µM [cytotoxic, full curve, poor fit]
Potency [5]: inactive
Potency [8]: inconclusive: 0.00332 µM
